Source: patent US20060052457A1, “Use of ppar alpha agonists for the treatment of vascular and renal diseases” (priority 2002, published 2006)
At least one compound was matched to its structure with a doubt left.

Tested on: smooth muscle cells
Assay: DNA synthesis by smooth muscle cells with PPAR-gamma agonists (FIG. 13)
Type: cell-based

`CN(CCOc1ccc(CC2SC(=O)NC2=O)cc1)c1ccccn1` (stereo not shown) [rosiglitazone] was tested, and the “inhibition of DNA synthesis by smooth muscle cells” value was “are not”.
